Measured values from article PMC7084908.
Results are given in words; binding and its absence hold for the method and conditions named. In cells and extracts the contact can be indirect. These calls come from enrichment with a bait or labelling near it, and not all partners need be listed.

Sequences of proteins named here, by UniProt entry; tags and fusion partners are left off. A change or cut given only in a name is not applied to a line headed by its entry. Residues count along the entry.
UniProt Q945P1: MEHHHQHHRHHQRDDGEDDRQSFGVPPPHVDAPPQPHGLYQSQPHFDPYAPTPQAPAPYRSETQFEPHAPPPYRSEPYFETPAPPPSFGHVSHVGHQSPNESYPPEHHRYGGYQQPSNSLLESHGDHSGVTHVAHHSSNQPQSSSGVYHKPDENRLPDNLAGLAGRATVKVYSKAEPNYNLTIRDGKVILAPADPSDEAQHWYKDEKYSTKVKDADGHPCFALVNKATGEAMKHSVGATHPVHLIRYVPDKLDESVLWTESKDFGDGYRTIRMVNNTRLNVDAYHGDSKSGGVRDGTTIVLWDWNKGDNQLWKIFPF
UniProt P43297, residues 137-352: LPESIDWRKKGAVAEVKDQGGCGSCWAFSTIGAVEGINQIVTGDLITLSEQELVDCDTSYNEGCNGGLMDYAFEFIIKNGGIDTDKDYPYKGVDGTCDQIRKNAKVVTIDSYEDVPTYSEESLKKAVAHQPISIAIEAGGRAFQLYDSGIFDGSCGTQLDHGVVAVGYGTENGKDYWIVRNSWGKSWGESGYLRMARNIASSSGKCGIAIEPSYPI
UniProt F4J8D3: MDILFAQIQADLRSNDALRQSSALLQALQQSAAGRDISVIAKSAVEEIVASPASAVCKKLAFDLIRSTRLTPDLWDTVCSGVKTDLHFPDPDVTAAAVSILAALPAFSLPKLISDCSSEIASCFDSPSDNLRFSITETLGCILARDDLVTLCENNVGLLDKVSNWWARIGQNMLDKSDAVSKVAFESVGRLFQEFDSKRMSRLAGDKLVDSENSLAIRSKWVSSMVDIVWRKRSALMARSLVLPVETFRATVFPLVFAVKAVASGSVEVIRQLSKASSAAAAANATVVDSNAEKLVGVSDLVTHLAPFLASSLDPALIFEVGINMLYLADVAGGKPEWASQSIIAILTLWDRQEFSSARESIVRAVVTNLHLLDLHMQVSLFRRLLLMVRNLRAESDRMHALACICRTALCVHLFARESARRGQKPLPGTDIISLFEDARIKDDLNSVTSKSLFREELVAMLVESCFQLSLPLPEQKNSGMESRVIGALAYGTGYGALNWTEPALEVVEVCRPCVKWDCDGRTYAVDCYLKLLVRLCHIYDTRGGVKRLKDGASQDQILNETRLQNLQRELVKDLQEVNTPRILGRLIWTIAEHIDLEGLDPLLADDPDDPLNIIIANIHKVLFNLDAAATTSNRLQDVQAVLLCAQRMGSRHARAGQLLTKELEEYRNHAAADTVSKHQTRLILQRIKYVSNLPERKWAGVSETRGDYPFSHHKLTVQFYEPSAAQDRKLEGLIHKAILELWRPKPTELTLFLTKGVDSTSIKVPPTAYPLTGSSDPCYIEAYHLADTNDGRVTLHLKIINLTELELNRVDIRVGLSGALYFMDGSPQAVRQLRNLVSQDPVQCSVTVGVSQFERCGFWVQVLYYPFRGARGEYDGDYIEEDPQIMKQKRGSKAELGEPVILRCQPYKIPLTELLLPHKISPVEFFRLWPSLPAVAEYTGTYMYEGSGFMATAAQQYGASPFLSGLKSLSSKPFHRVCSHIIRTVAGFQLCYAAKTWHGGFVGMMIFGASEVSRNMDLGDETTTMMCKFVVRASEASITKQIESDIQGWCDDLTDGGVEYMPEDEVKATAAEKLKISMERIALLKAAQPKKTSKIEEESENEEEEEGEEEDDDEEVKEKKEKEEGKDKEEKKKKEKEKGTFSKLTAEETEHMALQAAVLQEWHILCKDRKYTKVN
UniProt P0DH99: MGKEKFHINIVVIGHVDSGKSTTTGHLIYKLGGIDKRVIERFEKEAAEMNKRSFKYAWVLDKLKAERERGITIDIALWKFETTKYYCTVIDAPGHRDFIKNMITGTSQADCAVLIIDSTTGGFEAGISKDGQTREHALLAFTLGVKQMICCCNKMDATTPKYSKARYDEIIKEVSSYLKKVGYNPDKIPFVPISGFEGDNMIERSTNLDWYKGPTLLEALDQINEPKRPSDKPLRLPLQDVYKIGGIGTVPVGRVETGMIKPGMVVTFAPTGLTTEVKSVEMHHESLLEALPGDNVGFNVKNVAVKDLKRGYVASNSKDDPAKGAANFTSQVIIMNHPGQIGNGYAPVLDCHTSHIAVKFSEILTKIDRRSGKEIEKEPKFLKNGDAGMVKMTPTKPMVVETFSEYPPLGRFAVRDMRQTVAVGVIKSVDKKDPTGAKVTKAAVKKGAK
UniProt O65719: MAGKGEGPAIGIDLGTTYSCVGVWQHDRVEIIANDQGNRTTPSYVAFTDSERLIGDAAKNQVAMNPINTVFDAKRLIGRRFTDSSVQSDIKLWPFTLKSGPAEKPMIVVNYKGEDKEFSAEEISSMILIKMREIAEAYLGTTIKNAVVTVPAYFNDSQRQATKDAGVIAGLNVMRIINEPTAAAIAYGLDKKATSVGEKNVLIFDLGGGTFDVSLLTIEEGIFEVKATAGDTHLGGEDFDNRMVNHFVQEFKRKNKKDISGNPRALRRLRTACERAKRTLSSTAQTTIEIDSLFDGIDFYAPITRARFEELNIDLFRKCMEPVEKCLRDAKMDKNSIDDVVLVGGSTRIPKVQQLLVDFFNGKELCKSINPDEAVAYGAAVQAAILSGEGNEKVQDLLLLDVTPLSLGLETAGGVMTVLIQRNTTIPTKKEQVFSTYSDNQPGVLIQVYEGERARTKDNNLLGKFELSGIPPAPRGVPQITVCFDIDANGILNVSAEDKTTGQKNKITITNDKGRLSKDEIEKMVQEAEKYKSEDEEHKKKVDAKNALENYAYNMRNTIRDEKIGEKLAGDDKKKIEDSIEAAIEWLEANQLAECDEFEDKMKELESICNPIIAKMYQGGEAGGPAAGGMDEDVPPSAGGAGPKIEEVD
UniProt P56808: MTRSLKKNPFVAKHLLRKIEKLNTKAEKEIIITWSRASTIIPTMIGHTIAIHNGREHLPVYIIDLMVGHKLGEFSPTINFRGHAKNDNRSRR
UniProt Q9SUQ9: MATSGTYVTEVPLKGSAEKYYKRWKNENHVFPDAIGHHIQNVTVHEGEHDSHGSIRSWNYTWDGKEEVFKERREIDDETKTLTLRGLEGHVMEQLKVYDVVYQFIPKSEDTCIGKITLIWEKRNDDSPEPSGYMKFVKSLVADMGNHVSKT
UniProt O23255: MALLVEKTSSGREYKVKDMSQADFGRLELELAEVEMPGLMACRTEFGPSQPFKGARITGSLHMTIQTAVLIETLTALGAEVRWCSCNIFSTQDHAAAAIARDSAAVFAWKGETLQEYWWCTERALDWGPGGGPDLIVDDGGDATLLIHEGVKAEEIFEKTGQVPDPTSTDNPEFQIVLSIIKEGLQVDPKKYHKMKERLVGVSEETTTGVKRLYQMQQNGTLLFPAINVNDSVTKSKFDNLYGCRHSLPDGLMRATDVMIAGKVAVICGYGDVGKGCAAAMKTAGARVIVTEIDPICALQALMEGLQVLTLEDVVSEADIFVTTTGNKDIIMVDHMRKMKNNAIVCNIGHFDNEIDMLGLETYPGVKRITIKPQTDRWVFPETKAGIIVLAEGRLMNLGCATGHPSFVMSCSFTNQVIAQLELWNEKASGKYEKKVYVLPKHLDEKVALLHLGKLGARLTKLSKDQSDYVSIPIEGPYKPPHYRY

Target: Recombinant Myc- and His-tagged ArathEULS3 protein (Arabidopsis thaliana) (UniProt Q945P1)
Test: affinity purification with mass spectrometry; 100 µg purified Myc-tagged ArathEULS3 immobilised on Myc-Trap beads; 300 µg lysate of 2-week-old A. thaliana seedlings treated with 100 µM ABA for 5 h added for 1 h at 4 °C; washed with 10 mM Tris-HCl pH 7.5, 150 mM NaCl, 0.5 mM EDTA; LC-MS/MS of three replicates, compared with empty beads; only the target purified

Substance | binding
Cysteine proteinase (from UniProt P43297 137-352) (enzyme) | binds
Protein TPLATE (from UniProt F4J8D3 1-1176) | binds
Elongation factor 1-alpha 1/2/3 (from UniProt P0DH99 1-449) | binds
Heat shock 70 kDa protein 3 (from UniProt O65719 1-649) | binds
30S ribosomal protein S19 (from UniProt P56808 1-92) | binds
At4g23680 (from UniProt Q9SUQ9) | binds
Adenosyl homocysteinase (from UniProt O23255 1-485) (enzyme) | binds
